No constants are given. Whether binding was seen depends on the method and setting. Some binding calls cover weakened binding; strength is not graded here. Each block holds one molecule with its values, some of them ahead of it.
Experiments:
Snf2 (S. cerevisiae) [1] = biological target: Snf2 (S. cerevisiae) (UniProt P22082); experiment: EM reconstruction (negative stain) with 3D difference mapping of subunit deletion mutants; endogenous SWI/SNF affinity purified from S. cerevisiae; intact complex compared with complexes lacking one subunit; crystal structures fitted as rigid bodies; read together with cited CX-MS data
Snf2 (S. cerevisiae) [2] = biological target: Snf2 (S. cerevisiae) (UniProt P22082); experiment: EM reconstruction; endogenous Snf2-Arp7-Arp9 catalytic core obtained from S. cerevisiae; 3D structure fitted with PDB 4I6M and 5HZR
Snf5 (S. cerevisiae) = Snf5 (S. cerevisiae) (UniProt P18480); experiment: EM reconstruction (negative stain) with 3D difference mapping of subunit deletion mutants; endogenous SWI/SNF affinity purified from S. cerevisiae; intact complex compared with complexes lacking one subunit; crystal structures fitted as rigid bodies; read together with cited CX-MS data
Snf2 (S. cerevisiae) [3] = biological target: Snf2 (S. cerevisiae) (UniProt P22082); experiment: EM reconstruction; endogenous Snf2-Arp7-Arp9 catalytic core obtained from S. cerevisiae; 3D structure fitted with PDB 4I6M and 5HZR; remark: listed apart in the source

Protein sequences, listed by entry. Tags and fused reporters are not part of them.
UniProt P22082: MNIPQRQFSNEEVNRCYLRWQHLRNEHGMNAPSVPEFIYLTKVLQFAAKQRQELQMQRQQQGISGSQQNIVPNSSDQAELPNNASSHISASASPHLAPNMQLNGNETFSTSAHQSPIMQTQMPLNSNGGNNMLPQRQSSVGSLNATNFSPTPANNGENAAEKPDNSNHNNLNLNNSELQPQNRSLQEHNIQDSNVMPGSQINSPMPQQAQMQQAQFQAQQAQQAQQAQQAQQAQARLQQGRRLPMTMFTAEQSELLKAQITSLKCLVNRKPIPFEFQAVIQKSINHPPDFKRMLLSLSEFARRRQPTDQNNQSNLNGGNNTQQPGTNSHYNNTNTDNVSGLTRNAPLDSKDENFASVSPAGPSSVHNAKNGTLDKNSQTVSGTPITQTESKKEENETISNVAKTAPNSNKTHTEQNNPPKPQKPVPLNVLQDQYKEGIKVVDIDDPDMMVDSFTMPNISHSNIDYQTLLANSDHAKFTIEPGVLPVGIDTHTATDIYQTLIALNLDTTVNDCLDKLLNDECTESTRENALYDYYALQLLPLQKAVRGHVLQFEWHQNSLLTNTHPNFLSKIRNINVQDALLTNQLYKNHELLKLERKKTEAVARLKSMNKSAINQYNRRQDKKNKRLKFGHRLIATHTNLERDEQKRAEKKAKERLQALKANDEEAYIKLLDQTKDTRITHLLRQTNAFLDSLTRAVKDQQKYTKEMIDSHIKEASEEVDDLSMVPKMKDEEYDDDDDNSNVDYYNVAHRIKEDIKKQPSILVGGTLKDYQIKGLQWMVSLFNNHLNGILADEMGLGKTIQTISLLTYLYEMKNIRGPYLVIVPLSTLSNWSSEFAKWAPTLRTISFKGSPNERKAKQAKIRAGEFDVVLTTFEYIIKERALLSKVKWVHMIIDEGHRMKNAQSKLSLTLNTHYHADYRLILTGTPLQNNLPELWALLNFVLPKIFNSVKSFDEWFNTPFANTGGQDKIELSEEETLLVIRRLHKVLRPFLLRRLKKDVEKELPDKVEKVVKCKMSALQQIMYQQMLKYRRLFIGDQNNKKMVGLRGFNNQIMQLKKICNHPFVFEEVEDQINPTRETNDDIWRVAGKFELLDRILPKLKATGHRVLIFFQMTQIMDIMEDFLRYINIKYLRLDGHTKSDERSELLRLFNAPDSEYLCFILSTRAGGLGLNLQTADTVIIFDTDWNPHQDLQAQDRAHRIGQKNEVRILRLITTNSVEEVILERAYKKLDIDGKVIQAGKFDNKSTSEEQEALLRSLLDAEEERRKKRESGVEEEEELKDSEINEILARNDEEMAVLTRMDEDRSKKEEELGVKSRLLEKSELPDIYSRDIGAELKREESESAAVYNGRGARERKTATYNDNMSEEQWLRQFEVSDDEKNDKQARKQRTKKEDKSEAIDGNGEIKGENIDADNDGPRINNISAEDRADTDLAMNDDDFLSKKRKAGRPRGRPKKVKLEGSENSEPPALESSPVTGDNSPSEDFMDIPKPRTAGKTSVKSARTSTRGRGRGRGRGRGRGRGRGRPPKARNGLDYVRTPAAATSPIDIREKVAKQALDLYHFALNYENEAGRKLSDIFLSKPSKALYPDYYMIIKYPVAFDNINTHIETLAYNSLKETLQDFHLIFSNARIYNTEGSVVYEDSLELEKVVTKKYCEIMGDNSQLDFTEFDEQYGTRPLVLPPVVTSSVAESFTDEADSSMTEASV
UniProt P18480: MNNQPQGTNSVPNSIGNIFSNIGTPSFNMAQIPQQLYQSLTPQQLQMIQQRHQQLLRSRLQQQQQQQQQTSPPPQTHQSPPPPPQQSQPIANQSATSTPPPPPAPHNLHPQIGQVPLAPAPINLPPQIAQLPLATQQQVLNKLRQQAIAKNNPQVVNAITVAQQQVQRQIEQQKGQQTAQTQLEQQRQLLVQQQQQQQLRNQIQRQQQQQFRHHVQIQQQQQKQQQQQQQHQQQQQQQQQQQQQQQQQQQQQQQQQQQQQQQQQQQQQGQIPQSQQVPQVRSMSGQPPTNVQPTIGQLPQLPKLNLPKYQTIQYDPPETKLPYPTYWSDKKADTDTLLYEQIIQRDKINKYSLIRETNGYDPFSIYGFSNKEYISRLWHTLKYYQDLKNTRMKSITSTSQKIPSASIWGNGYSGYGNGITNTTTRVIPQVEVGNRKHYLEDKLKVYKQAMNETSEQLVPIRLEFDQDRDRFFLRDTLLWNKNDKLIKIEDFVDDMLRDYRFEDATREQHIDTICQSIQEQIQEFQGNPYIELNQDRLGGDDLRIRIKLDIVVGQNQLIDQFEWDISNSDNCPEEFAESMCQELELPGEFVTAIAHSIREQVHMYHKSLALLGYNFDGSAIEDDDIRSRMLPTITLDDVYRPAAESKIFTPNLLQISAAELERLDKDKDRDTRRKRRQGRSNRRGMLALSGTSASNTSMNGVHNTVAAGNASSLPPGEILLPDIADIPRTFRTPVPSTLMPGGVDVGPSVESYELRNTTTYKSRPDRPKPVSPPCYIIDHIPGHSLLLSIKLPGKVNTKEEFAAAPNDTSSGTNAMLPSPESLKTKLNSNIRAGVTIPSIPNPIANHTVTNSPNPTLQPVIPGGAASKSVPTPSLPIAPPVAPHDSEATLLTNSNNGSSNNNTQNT
UniProt Q05123: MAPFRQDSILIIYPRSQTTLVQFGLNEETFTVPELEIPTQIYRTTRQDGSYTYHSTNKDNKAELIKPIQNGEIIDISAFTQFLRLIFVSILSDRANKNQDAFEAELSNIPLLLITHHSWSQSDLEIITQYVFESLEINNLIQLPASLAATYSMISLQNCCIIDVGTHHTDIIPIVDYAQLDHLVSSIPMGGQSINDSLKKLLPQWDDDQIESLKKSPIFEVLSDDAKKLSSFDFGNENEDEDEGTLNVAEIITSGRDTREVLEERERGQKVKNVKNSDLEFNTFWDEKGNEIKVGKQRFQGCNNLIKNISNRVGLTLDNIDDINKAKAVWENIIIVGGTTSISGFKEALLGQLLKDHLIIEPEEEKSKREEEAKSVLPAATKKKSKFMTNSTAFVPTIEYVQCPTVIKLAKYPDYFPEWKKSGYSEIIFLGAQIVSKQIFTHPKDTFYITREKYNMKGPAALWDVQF
UniProt Q12406: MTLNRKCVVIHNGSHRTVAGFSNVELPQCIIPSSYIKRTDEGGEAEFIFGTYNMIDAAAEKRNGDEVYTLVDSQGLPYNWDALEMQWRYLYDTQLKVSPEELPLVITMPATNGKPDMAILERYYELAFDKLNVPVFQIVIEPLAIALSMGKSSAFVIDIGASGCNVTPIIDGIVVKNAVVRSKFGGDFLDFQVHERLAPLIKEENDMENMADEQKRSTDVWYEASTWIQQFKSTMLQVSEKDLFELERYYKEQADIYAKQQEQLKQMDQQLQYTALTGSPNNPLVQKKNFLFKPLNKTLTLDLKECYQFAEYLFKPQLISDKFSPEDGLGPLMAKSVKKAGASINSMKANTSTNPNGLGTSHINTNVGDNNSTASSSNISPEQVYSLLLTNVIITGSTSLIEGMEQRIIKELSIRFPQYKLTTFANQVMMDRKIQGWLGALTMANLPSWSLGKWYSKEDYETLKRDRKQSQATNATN

Molecule: Arp9 (from UniProt Q05123 1-467)
binding (Snf2 (S. cerevisiae) [2]): binds

B1: Swi1 (protein, UniProt P09547 1-1314)
chain: MDFFNLNNNNNNNNTTTTTTTTNNNNTNNNNTNNNNNPANNTNNNNSTGHSSNTNNNTNNNNTNTGASGVDDFQNFFDPKPFDQNLDSNNNNSNSNNNDNNNSNTVASSTNFTSPTAVVNNAAPANVTGGKAANFIQNQSPQFNSPYDSNNSNTNLNSLSPQAILAKNSIIDSSNLPLQAQQQLYGGNNNNNSTGIANDNVITPHFITNVQSISQNSSSSTPNTNSNSTPNANQQFLPFNNSASNNGNLTSNQLISNYAASNSMDRSSSASNEFVPNTSDNNNNSNNHNMRNNSNNKTSNNNNVTAVPAATPANTNNSTSNANTVFSERAAMFAALQQKQQQRFQALQQQQQQQQNQQQQNQQPQQQQQQQQNPKFLQSQRQQQQRSILQSLNPALQEKISTELNNKQYELFMKSLIENCKKRNMPLQSIPEIGNRKINLFYLYMLVQKFGGADQVTRTQQWSMVAQRLQISDYQQLESIYFRILLPYERHMISQEGIKETQAKRIFLQQFLQELLKKVQQQQQAAALANANNNINSASSAPTPAAPGASVPATAAPGTEAGIVPVSANTPKSLNSNININVNNNNIGQQQVKKPRKQRVKKKTKKELELERKEREDFQKRQQKLLEDQQRQQKLLLETKLRQQYEIELKKLPKVYKRSIVRNYKPLINRLKHYNGYDINYISKIGEKIDSNKPIFLFAPELGAINLHALSMSLQSKNLGEINTALNTLLVTSADSNLKISLVKYPELLDSLAILGMNLLSNLSQNVVPYHRNTSDYYYEDAGSNQYYVTQHDKMVDKIFEKVNNNATLTPNDSNDEKVTILVDSLTGNQLPTPTPTEMEPDLDTECFISMQSTSPAVKQWDLLPEPIRFLPNQFPLKIHRTPYLTSLKKIKDEIDDPFTKINTRGAEDPKVLINDQLSTISMILRNISFSDNNSRIMSRNFYLKRFISDLLWLVLIHPENFTCNRKILNFKKDLVIVLSNISHLLEIASSIDCLLILILVISFGQPKLNPMASSSSFGSESLTFNEFQLQWGKYQTFGVDILAKLFSLEKPNLNYFKSILLNKNTGNNLYDRNSNNNHKDKKLLRRLLNLYNDNNKNNNNRHNLLNDVVSFLFSAIPLQQVLSQSADPSLLIDQFSPVISQSLTSILVIVQKILPLSNEVFEISENNSDSNSNNNGNKDSSFNFNKNLPFVWLSSEENIGSGLLKLSEIILNINNSTSKNTLLQQQNYSKVLLPSINISCVQLIKCLVEKSICFENCLNNDPEILKKIASIPNLFPTDLEIFQLFTNPSVDIQIINQYQLLYNLKNDILTNLE
binding (Snf5 (S. cerevisiae)): binds

More lines, now with the values ahead:

binding (Snf2 (S. cerevisiae) [1]): binds
Molecule: Snf5 (from UniProt P18480 1-905)

binding (Snf2 (S. cerevisiae) [2]): binds
Molecule: Arp7 (from UniProt Q12406 1-477)

binding (Snf2 (S. cerevisiae) [3]): binds
B2: Rtt102 (protein, UniProt P53330 1-157)
chain: MDPQTLITKANKVSYYGNPTSKESWRYDWYQPSKVSSNVQQPQQQLGDMENNLEKYPFRYKTWLRNQEDEKNLQRESCEDILDLKEFDRRILKKSLMTSHTKGDTSKATGAPSANQGDEALSVDDIRGAVGNSEAIPGLSAGVNNDNTKESKDVKMN
